Values from PubChem BioAssay AID1259308 (NCATS, 2017)

Aim: 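Genes whose loss raises luciferase production in HEK293 cells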 (primary screen)
Cells: human HEK293 embryonic kidney cells stably expressing firefly luciferase (HEK-CMV-Luc2-Hygro)
Knock-down reagent: single siRNA against human genes, 0.8 pmol siRNA per well
Duration: 72 h
Detection: 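Reporter luminescence and viable-cell signal on separate replicate plates, given as percent of non-targeting control and median/MAD z-scores, plus per-cell luciferase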
Direction: total luciferase, z-score: higher = more reporter protein produced
Hit rule: 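An siRNA counts as active if its total luciferase robust z-score exceeds 3; genes with two or more such siRNAs out of three were retested with fresh siRNAs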
Meaning of the calls: active = raised luciferase; inactive = no rise
Shown is a random part of about 59,000 deposited reagents. About 1,510 of them (2.6%) were called active. 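Calls use total luciferase alone and ignore viability, so some active siRNAs may act by altering cell number.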 Reagents against one gene are numbered here. Further read-outs or replicates are left out here.

Silencing of MIER1 #1 came out at: total luciferase, z-score -0.388; inactive.
Against MIER1 #2 the deposit lists total luciferase, z-score -0.681; inactive.
Against MIER1 #3 the deposit lists total luciferase, z-score 0.819; inactive.
RUNX3 #1 gave total luciferase, z-score 0.38; inactive.
Against RUNX3 #2 the deposit lists total luciferase, z-score 3.5; active.
With knock-down of RUNX3 #3 the results were total luciferase, z-score -2.58; inactive.

Reagents above called active, once more:
RUNX3 #2 → total luciferase, z-score = 3.5; Call = active

The listing continues.
NIPSNAP3A #1 showed total luciferase, z-score 1.83; inactive.
NIPSNAP3A #2 showed total luciferase, z-score -0.0791; inactive.
For NIPSNAP3A #3, the entry reads total luciferase, z-score -0.75; inactive.
After knock-down of GFOD2 #1 the results were total luciferase, z-score -0.415; inactive.
GFOD2 #2 gave total luciferase, z-score -0.0496; inactive.
For GFOD2 #3 the deposit lists total luciferase, z-score -1.85; inactive.
